How the values were obtained:
[1] = system: sections of human esophagus ex vivo; experiment: Confocal microscopy of staining of human esophageal specimens ex vivo (SQ, BE, HGD, EAC); settings: ROC curve, T/B ratio of 3.0, compared with pathology
Method: Formalin-fixed sections of human esophageal specimens were deparaffinized, and antigen retrieval was performed using standard methods. Briefly, the sections were incubated in xylene for 3 min 3X, washed with 100% ethanol for 2 min 2X, and washed with 95% ethanol for 2 min 2X. Rehydration was performed by washing in dH2O for 5 min 2X. Antigen unmasking was performed by boiling the slides in 10 mM sodium citrate buffer with 0.05% Tween at pH 6.0, and then maintaining at sub-boiling temperature for 15 min. The slides were cooled for 30 min, and the sections were washed in dH2O for 3 min 3X and in PBS for 5 min. Blocking was performed with DAKO protein blocking agent (X0909, DAKO) for 1 hour at RT. The peptides were incubated at a concentration of 1 μM for 10 min at RT. The sections were washed in PBS for 3 min 3X, and incubated with 1:1000 dilution of monoclonal anti-FGFR2 (Abcam, ab58201) overnight at 4°C.
The sections were then washed in PBS for 5 min 3X. A 1:500 dilution of AF488-labeled secondary antibody (goat anti-mouse) was added to each section and incubated for 30 min at RT. The secondary antibody solution was removed by washing with PBS for 5 min 3X. […] The mean fluorescence intensities from 3 boxes (dimensions of 30×30 μm^2) located completely within the surface epithelium of each specimen were measured. […]

[2] = system: sections of human esophageal squamous cell cancer (SCC); experiment: Confocal microscopy of staining of human esophageal squamous cell cancer (SCC) ex vivo; settings: ROC curve
Text: We observed good co-localization of peptide and antibody binding on merged images, Supplementary Figure 5C. Representative histology (H&E) for SCC is shown, Supplementary Figure 5D. […] Representative histology (H&E) for normal stomach is shown, Supplementary Figure 5H.

[3] = system: sections of human gastric cancer; experiment: Confocal microscopy of staining of human gastric cancer ex vivo; settings: ROC curve
Text: We observed good co-localization of peptide and antibody binding on merged images, Supplementary Figure 6C. Representative histology (H&E) for gastric cancer is shown, Supplementary Figure 6D. […] Representative histology (H&E) for normal stomach is shown, Supplementary Figure 6H.

With SRRPASFRTARE [SRR^*-Cy5.5] the “sensitivity to detect Barrett's neoplasia (HGD and EAC)” value [1] was 87%, the “specificity to detect Barrett's neoplasia (HGD and EAC)” value [1] was 70% and the “sensitivity for detecting SCC” value [2] was 94%. The “specificity for detecting SCC” value [2] was 96%, the “sensitivity for detecting gastric cancer” value [3] was 90% and the “specificity for detecting gastric cancer” value [3] was 100%.

From publication PMC5675618, “Identification and validation of FGFR2 peptide for detection of early Barrett's neoplasia” (Oncotarget, 2017)
